According to the supplement of paper PMC12823440, “Inhibitors supercharge kinase turnover through native proteolytic circuits” (Nature, 2025):
Where a name gives a salt, the structure may show the parent alone. The list shows a part of the results. Hit calls seldom repeat between salt and free forms of one compound.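 In K562 cells expressing nanoluciferase-fused kinases, luminescence was recorded at 4 h intervals between 2 and 18 h, normalized as percent of control with DMSO at 100% and a positive control at 0%. A significant (2 sigma) signal drop marks a time point as decreased. The authors' rule for a hit is not shown and takes in more than the number of time points.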

Chains of the proteins cited; added tags and fusions are not shown. Lines headed by an entry give the natural chain unless they say otherwise; changes in a name come on top.
UniProt P07949, whole entry, looked up: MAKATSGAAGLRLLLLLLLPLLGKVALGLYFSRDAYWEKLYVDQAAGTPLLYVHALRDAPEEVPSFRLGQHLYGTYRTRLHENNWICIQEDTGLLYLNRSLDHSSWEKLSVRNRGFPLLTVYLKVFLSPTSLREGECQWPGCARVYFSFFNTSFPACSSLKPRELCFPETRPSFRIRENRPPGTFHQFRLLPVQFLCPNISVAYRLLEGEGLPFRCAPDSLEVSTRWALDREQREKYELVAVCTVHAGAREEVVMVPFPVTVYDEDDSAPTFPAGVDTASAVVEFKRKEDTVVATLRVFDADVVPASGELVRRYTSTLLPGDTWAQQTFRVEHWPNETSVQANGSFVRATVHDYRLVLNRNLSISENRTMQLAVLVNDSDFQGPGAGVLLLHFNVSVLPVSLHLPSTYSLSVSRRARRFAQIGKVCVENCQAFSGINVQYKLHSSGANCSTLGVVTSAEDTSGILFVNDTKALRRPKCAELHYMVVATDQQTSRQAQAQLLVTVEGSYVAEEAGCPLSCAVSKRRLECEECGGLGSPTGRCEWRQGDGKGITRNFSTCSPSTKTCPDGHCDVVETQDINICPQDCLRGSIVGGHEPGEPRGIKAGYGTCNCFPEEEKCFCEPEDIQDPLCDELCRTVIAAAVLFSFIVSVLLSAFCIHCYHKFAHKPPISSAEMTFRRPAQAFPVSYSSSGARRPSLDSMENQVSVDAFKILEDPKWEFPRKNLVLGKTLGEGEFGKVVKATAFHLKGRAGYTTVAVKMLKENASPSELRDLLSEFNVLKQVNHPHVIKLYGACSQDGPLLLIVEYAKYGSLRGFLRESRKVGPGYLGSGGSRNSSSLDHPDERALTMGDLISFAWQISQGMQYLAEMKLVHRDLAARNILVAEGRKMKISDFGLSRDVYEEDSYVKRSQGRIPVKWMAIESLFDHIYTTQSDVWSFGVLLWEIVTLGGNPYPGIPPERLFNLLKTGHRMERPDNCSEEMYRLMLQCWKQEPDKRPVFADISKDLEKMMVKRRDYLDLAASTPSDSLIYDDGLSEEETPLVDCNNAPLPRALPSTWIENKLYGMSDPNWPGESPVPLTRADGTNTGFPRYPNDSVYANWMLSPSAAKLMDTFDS
UniProt P07949, whole entry M918T, looked up: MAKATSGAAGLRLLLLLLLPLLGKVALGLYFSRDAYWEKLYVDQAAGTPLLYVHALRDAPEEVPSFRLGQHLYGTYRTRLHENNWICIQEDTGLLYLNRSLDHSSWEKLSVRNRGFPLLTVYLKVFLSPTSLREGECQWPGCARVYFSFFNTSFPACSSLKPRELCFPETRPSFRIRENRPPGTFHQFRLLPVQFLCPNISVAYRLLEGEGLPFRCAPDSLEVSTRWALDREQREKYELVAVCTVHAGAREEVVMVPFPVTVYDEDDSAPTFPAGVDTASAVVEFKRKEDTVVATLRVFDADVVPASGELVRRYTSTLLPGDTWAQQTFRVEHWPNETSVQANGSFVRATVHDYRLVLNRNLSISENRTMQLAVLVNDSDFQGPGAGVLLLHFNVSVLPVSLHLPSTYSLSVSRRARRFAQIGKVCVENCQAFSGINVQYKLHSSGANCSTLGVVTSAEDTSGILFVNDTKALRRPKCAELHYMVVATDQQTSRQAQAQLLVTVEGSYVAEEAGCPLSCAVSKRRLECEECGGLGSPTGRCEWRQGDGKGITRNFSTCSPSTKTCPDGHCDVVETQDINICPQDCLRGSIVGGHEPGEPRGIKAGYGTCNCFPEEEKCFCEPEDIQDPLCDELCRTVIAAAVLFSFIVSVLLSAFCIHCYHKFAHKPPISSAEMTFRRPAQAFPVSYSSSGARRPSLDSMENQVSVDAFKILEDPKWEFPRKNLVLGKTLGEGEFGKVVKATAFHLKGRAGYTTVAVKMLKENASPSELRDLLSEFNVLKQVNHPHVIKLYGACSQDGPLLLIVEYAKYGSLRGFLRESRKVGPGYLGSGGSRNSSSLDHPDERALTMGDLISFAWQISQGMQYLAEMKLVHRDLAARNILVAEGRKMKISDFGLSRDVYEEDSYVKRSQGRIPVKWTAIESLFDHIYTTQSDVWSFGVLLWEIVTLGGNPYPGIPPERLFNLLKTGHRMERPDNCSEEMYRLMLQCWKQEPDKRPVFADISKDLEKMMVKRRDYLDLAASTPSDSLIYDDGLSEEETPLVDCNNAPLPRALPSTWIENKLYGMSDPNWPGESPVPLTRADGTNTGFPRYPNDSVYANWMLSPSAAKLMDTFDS
UniProt Q9BRS2: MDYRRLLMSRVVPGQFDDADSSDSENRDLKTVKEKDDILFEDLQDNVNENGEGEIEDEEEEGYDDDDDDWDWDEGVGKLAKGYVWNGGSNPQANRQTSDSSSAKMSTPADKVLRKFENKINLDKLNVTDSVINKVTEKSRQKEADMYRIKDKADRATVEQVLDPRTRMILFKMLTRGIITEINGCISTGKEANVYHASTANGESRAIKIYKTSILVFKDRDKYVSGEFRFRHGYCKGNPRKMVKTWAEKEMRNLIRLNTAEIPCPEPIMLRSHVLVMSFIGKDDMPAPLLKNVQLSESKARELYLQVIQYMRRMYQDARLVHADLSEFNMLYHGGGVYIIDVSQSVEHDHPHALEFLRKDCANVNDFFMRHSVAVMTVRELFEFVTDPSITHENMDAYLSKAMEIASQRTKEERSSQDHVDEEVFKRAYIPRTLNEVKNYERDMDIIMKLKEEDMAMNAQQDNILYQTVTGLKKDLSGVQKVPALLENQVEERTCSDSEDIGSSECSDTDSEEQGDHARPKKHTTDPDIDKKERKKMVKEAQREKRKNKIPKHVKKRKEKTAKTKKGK
UniProt Q13546: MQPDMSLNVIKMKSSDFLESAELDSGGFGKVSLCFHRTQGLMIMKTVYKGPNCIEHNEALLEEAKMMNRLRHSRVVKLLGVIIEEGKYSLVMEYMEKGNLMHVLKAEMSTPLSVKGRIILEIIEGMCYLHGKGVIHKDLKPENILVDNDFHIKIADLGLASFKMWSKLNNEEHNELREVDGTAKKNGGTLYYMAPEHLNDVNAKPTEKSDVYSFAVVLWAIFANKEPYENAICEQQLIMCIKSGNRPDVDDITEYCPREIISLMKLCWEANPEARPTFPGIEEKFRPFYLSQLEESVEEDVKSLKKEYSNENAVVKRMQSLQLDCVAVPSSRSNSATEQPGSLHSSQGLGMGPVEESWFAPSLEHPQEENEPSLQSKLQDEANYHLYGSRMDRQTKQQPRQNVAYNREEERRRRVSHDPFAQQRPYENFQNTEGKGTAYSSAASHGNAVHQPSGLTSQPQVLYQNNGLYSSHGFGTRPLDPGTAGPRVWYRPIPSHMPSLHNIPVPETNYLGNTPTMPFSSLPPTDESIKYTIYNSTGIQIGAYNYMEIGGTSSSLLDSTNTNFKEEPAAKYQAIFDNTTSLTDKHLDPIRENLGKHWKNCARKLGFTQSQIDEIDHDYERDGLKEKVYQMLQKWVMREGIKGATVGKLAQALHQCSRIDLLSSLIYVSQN
UniProt Q01974, whole entry: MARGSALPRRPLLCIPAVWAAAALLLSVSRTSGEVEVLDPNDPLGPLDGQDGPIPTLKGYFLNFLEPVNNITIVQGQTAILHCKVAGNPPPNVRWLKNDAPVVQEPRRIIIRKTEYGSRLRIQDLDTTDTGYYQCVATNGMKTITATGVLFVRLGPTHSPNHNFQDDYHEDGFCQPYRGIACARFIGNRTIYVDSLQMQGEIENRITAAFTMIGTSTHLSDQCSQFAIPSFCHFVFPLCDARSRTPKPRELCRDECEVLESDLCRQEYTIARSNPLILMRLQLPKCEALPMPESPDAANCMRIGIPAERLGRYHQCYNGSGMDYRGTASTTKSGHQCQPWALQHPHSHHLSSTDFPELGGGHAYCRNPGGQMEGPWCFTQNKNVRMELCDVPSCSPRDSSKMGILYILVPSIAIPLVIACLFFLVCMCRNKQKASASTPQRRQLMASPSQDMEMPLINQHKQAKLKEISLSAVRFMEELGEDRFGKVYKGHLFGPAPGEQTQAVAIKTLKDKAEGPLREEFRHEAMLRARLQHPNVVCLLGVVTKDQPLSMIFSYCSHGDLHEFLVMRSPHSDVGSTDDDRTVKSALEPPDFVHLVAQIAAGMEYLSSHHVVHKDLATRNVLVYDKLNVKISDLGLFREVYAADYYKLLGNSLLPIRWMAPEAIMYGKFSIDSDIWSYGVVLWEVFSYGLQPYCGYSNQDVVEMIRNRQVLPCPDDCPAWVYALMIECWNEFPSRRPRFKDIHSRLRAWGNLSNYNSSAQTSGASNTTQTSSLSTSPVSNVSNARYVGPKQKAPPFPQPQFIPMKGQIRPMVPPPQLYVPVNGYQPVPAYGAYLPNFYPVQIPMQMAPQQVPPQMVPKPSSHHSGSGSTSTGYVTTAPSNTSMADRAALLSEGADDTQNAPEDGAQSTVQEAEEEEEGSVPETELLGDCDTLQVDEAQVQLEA
UniProt Q15418, whole entry: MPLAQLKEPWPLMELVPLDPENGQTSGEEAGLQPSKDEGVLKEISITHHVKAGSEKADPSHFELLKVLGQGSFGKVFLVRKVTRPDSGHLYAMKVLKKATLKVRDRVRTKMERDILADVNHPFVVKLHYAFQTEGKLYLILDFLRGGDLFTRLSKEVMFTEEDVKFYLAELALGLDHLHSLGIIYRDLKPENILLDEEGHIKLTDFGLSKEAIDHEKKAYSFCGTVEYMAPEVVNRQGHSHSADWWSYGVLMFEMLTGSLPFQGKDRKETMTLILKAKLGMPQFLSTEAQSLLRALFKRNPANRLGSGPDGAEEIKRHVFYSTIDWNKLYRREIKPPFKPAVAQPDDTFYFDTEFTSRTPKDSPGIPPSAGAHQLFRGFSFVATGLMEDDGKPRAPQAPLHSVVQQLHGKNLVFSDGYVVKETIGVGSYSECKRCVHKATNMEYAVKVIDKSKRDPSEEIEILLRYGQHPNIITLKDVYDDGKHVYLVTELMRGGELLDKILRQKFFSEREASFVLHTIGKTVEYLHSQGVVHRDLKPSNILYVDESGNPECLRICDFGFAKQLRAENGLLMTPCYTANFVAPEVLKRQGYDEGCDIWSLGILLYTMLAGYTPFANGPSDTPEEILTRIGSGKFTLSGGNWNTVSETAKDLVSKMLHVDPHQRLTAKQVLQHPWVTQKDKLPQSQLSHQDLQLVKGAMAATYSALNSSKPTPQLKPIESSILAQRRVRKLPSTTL
UniProt Q9NYA1, whole entry: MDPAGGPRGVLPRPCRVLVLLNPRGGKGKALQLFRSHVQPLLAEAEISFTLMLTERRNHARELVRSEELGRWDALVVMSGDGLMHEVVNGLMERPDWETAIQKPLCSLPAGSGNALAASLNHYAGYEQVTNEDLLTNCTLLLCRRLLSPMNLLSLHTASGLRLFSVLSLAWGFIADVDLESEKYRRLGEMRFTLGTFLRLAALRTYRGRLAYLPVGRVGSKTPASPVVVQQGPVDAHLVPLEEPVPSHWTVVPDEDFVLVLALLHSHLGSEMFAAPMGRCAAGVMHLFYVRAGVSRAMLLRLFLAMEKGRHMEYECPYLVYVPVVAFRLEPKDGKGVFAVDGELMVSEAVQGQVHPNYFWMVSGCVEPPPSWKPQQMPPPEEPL
UniProt Q9Y6E0: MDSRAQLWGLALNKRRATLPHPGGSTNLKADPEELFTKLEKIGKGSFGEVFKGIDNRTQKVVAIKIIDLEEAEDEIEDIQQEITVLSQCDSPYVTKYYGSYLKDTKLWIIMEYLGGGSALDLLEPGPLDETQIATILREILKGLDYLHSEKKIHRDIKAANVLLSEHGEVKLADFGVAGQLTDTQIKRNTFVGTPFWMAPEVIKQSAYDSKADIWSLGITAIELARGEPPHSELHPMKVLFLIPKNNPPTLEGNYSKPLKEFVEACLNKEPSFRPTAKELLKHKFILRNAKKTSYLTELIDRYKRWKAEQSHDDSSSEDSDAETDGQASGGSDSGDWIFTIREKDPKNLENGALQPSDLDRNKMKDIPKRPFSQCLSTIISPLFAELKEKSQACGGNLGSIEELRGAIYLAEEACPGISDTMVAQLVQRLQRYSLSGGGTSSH

Columns and labels:
Assay in all cases: kinase-Nluc reporter destabilization hit call (1 = scored as downregulated) (binary); higher = compound decreases kinase abundance
Conditions in all cases: K562, 2-18 h
RET = RET (UniProt P07949)
[1] = target: RET_M918T (clone: RET_mut) (UniProt P07949)
RIOK1 = RIOK1 (UniProt Q9BRS2)
RIPK1 = RIPK1 (UniProt Q13546)
RIPK2 = RIPK2 (UniProt O43353)
ROR2 = ROR2 (UniProt Q01974)
RPS6KA1 = RPS6KA1 (UniProt Q15418)
SPHK1 = SPHK1 (UniProt Q9NYA1)
SRC = SRC (UniProt P12931)
STK24 = STK24 (UniProt Q9Y6E0)

Measured: kinase-Nluc reporter destabilization hit call

O=C(O)c1ccc2c(c1)nc(Nc1cccc(Cl)c1)c1ccncc12 [Silmitasertib (sodium salt)]
inactive: RET; 10 µM 0 | [1]; 10 µM 0 | RIOK1; 10 µM 0 | RIPK1; 10 µM 0 | RIPK2; 10 µM 0 | ROR2; 10 µM 0 | RPS6KA1; 10 µM 0 | SPHK1; 10 µM 0 | SRC; 10 µM 0 | STK24; 10 µM 0

O=C(Nc1ccncc1)Nc1ccc(-c2nc(N3CCOCC3)nc(N3C4CCC3COC4)n2)cc1
inactive: RET; 10 µM 0 | [1]; 10 µM 0 | RIOK1; 10 µM 0 | RIPK1; 10 µM 0 | RIPK2; 10 µM 0 | ROR2; 10 µM 0 | RPS6KA1; 10 µM 0 | SPHK1; 10 µM 0 | SRC; 10 µM 0 | STK24; 10 µM 0

COc1cc2nccc(Oc3ccc(NC(=O)C4(C(=O)Nc5ccc(F)cc5)CC4)cc3)c2cc1OC [Cabozantinib (S-malate)]
inactive: RET; 10 µM 0 | [1]; 10 µM 0 | RIOK1; 10 µM 0 | RIPK1; 10 µM 0 | RIPK2; 10 µM 0 | ROR2; 10 µM 0 | RPS6KA1; 10 µM 0 | SPHK1; 10 µM 0 | SRC; 10 µM 0 | STK24; 10 µM 0

CC(=O)c1c(C)c2cnc(Nc3ccc(N4CCNCC4)cn3)nc2n(C2CCCC2)c1=O [Palbociclib (monohydrochloride)]
inactive: RET; 10 µM 0 | [1]; 10 µM 0 | RIOK1; 10 µM 0 | RIPK1; 10 µM 0 | RIPK2; 10 µM 0 | ROR2; 10 µM 0 | RPS6KA1; 10 µM 0 | SPHK1; 10 µM 0 | SRC; 10 µM 0 | STK24; 10 µM 0

COc1cc2nccc(Oc3ccc(NC(=O)C4(C(=O)Nc5ccc(F)cc5)CC4)cc3)c2cc1OC [Cabozantinib]
inactive: RET; 2.5 µM 0 | [1]; 2.5 µM 0 | RIOK1; 2.5 µM 0 | RIPK1; 2.5 µM 0 | RIPK2; 2.5 µM 0 | ROR2; 2.5 µM 0 | RPS6KA1; 2.5 µM 0 | SPHK1; 2.5 µM 0 | SRC; 2.5 µM 0 | STK24; 2.5 µM 0

COc1cc2c(-c3cnn4cc(N5CCC(N6CCN(C)CC6)CC5)cnc34)ccnc2cc1F
inactive: RET; 10 µM 0 | [1]; 10 µM 0 | RIOK1; 10 µM 0 | RIPK1; 10 µM 0 | RIPK2; 10 µM 0 | ROR2; 10 µM 0 | RPS6KA1; 10 µM 0 | SPHK1; 10 µM 0 | SRC; 10 µM 0 | STK24; 10 µM 0

O=C(Nc1cnn2ccc(N3CCC[C@@H]3c3cc(F)ccc3F)nc12)N1CC[C@H](O)C1 [Larotrectinib]
inactive: RET; 10 µM 0 | [1]; 10 µM 0 | RIOK1; 10 µM 0 | RIPK1; 10 µM 0 | RIPK2; 10 µM 0 | ROR2; 10 µM 0 | RPS6KA1; 10 µM 0 | SPHK1; 10 µM 0 | SRC; 10 µM 0 | STK24; 10 µM 0

Oc1cccc(-c2nc(N3CCOCC3)c3oc4ncccc4c3n2)c1
inactive: RET; 10 µM 0 | [1]; 10 µM 0 | RIOK1; 10 µM 0 | RIPK1; 10 µM 0 | RIPK2; 10 µM 0 | ROR2; 10 µM 0 | RPS6KA1; 10 µM 0 | SPHK1; 10 µM 0 | SRC; 10 µM 0 | STK24; 10 µM 0

O=C1Nc2ccccc2/C1=C/c1ccccn1 [GSK-3β inhibitor 1]
inactive: RET; 10 µM 0 | [1]; 10 µM 0 | RIOK1; 10 µM 0 | RIPK1; 10 µM 0 | RIPK2; 10 µM 0 | ROR2; 10 µM 0 | RPS6KA1; 10 µM 0 | SPHK1; 10 µM 0 | SRC; 10 µM 0 | STK24; 10 µM 0

FC(F)(F)c1ccc(CNc2ccc(Cc3c[nH]c4ncc(Cl)cc34)cn2)cn1 [Pexidartinib (hydrochloride)]
inactive: RET; 10 µM 0 | [1]; 10 µM 0 | RIOK1; 10 µM 0 | RIPK1; 10 µM 0 | RIPK2; 10 µM 0 | ROR2; 10 µM 0 | RPS6KA1; 10 µM 0 | SPHK1; 10 µM 0 | SRC; 10 µM 0 | STK24; 10 µM 0

CNC(=O)c1ccccc1Nc1cc(Nc2ccc(N3CCOCC3)cc2OC)ncc1C(F)(F)F
inactive: RET; 10 µM 0 | [1]; 10 µM 0 | RIOK1; 10 µM 0 | RIPK1; 10 µM 0 | RIPK2; 10 µM 0 | ROR2; 10 µM 0 | RPS6KA1; 10 µM 0 | SPHK1; 10 µM 0 | SRC; 10 µM 0 | STK24; 10 µM 0

CCS(=O)(=O)N1CC(CC#N)(n2cc(-c3ncnc4[nH]ccc34)cn2)C1 [Baricitinib]
inactive: RET; 10 µM 0 | [1]; 10 µM 0 | RIOK1; 10 µM 0 | RIPK1; 10 µM 0 | RIPK2; 10 µM 0 | ROR2; 10 µM 0 | RPS6KA1; 10 µM 0 | SPHK1; 10 µM 0 | SRC; 10 µM 0 | STK24; 10 µM 0

COc1cc2nccc(Nc3cc(OC)c(OC)c(OC)c3)c2cc1OC [GAK inhibitor 49 (hydrochloride)]
inactive: RET; 10 µM 0 | [1]; 10 µM 0 | RIOK1; 10 µM 0 | RIPK1; 10 µM 0 | RIPK2; 10 µM 0 | ROR2; 10 µM 0 | RPS6KA1; 10 µM 0 | SPHK1; 10 µM 0 | SRC; 10 µM 0 | STK24; 10 µM 0

Quoted at random: two records from the list.
CCS(=O)(=O)N1CC(CC#N)(n2cc(-c3ncnc4[nH]ccc34)cn2)C1 [Baricitinib]
inactive: RET; 10 µM 0 | [1]; 10 µM 0 | RIOK1; 10 µM 0 | RIPK1; 10 µM 0 | RIPK2; 10 µM 0 | ROR2; 10 µM 0 | RPS6KA1; 10 µM 0 | SPHK1; 10 µM 0 | SRC; 10 µM 0 | STK24; 10 µM 0

COc1cc2nccc(Nc3cc(OC)c(OC)c(OC)c3)c2cc1OC [GAK inhibitor 49 (hydrochloride)]
inactive: RET; 10 µM 0 | [1]; 10 µM 0 | RIOK1; 10 µM 0 | RIPK1; 10 µM 0 | RIPK2; 10 µM 0 | ROR2; 10 µM 0 | RPS6KA1; 10 µM 0 | SPHK1; 10 µM 0 | SRC; 10 µM 0 | STK24; 10 µM 0

Next part

CN1CCCN(C(=O)c2cccc(-c3ccc(/C=C4/C(=O)Nc5ccc(Cl)cc54)o3)c2)CC1
inactive: RET; 2.5 µM 0 | [1]; 2.5 µM 0 | RIOK1; 2.5 µM 0 | RIPK1; 2.5 µM 0 | RIPK2; 2.5 µM 0 | ROR2; 2.5 µM 0 | RPS6KA1; 2.5 µM 0 | SPHK1; 2.5 µM 0 | SRC; 2.5 µM 0 | STK24; 2.5 µM 0

CC(C)(C)n1nc(-c2cccc3ccccc23)c2c(N)ncnc21 [1-Naphthyl PP1 (hydrochloride)]
inactive: RET; 10 µM 0 | [1]; 10 µM 0 | RIOK1; 10 µM 0 | RIPK1; 10 µM 0 | RIPK2; 10 µM 0 | ROR2; 10 µM 0 | RPS6KA1; 10 µM 0 | SPHK1; 10 µM 0 | SRC; 10 µM 0 | STK24; 10 µM 0
